Data source: PubChem BioAssay AID1224826 (NIAID, 2016)
The whole screen tested about 17,000 reagents; below is an unselected part. About 1,110 of them (6.6%) count as active. 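Active means lowered or raised reporter signal; replicate intensities are raw and not normalised per plate.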 Entries without a mark were called inactive.

Aim: 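Regulators of Tlr4 signalling leading to Tnf-alpha expression in macrophages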 (primary screen)
Cells: RAW264.7 G9 macrophages from mouse bearing reporters for p65 (GFP) and the Tnf promoter (mCherry)
Reagent: siRNA pool against mouse genes, 100 nM
Timing: 16 h of LPS stimulation, after 2 days of siRNA transfection
Treatment: bacterial lipopolysaccharide (Salmonella minnesota R595), 10 ng/ml
Read-out: 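Imaged Tnf reporter mCherry in nuclei, minus background, normalised per plate to the median and expressed as robust z-scores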
Direction: Tnf reporter robust z-score: higher = stronger Tnf promoter reporter signal after LPS; Tnf reporter intensity: higher = stronger Tnf promoter reporter signal
Rule for the call: 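Called active when robust z-score is at most -1.3, matching the median of the Tlr4 knock-down control, or over 3; control wells and wells with under 50 cells never active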
Meaning of the calls: active = Tnf reporter clearly lowered or raised; inactive = no clear change in Tnf reporter

The first 4 entries, to show the layout:
Gene	Tnf reporter robust z-score	fewer than 50 cells in well	Tnf reporter intensity, replicate 1	Tnf reporter intensity, replicate 2
Mafa	0.11	enough cells in well	211	140
4930512M02Rik	-0.08	enough cells in well	202	50.1
Drd2	1.25	enough cells in well	343	279
Mcpt8	1.44	enough cells in well	295	207

Results, from the start:
Gene	Tnf reporter robust z-score	fewer than 50 cells in well	Tnf reporter intensity, replicate 1	Tnf reporter intensity, replicate 2
Mafa	0.11	enough cells in well	211	140
4930512M02Rik	-0.08	enough cells in well	202	50.1
Drd2	1.25	enough cells in well	343	279
Mcpt8	1.44	enough cells in well	295	207
Ppp1r2-ps9	-0.05	enough cells in well	140	171
Or11g24	5.64 (active)	enough cells in well	179	349
Sec24a	-0.03	enough cells in well	266	222
Plcd3	0.58	enough cells in well	176	134
Tdg		fewer than 50 cells per well; well left out of calls	140	135
Mapk9		fewer than 50 cells per well; well left out of calls	188	122
Neil2	4.51 (active)	enough cells in well	612	419
4930579C12Rik	-0.95	enough cells in well	160	38.8
Mrgprb2	-0.21	enough cells in well	232	219
Tnfsf12	-0.3	enough cells in well	206	123
Lrrd1	-0.07	enough cells in well	203	49.2
Ctsm	-0.44	enough cells in well	141	166
Shroom2	1.81	enough cells in well	256	283
Prpf19		fewer than 50 cells per well; well left out of calls	0	56.6
Cfc1	0.16	enough cells in well	220	257
Zfp426	1	enough cells in well	155	180
Kcna10	0.34	enough cells in well	231	240
Igfbp1	1.44	enough cells in well	355	277
Or6aa1	-0.82	enough cells in well	129	87.9
Myo5b	-1.5 (active)	enough cells in well	105	55.9
Phox2b	-0.49	enough cells in well	203	163
Fgf23	0.01	enough cells in well	249	245
F2rl3	0.95	enough cells in well	229	487
A530021J07Rik	1.46	enough cells in well	235	251
Ndufaf5	-0.26	enough cells in well	153	56.2
Uxt	0.15	enough cells in well	117	100
Or2n1c	-0.34	enough cells in well	167	102
Mpp2	1.19	enough cells in well	288	214
Zbtb10	-1.16	enough cells in well	123	81.7
Entpd7	1.29	enough cells in well	378	181
1110038F14Rik	1.02	enough cells in well	358	102
Wdr4	-0.56	enough cells in well	218	180
Gsto1	-0.86	enough cells in well	232	122
Rpf2	-0.33	enough cells in well	102	144
Hoxb5	0.74	enough cells in well	279	251
Or4k45	-0.64	enough cells in well	146	91.4
